# Some results were stated once for a whole list of compounds, not compound by compound.
# Assays:
# [1] = Drug-release profile from prototype stent/ETDS in drug release media; type: physicochemical; settings: without the polymer; dissolution media pH 4
# [2] = Drug distribution 28-day PK study in naïve mice implanted with ETDS; type: in vivo; settings: whole body imaging study and PK study
# Protocol: An in vivo 28-day PK and drug distribution studies was conducted to understand drug distribution and the release profile/duration of drug-released from the different ETDS.
# Nine mice were subcutaneously implanted with the same ETDS as implanted in the efficacy study. […] […] Three animals were terminated at each of these time points. Drug distribution in the plasma and skin tissue was analyzed by LC-MS. The preclinical stents were explanted and assayed for residual drug.
# [3] = Stability of ICG and HCFU (pH, dissolution media, ETDS product); type: physicochemical; settings: coated on nanoporous ETDS, dissolution media pH 4
# Source text: A suboptimal pH (4) for the dissomedia was chosen to preserve both and simultaneously quantitate them as they eluted.
# A suboptimal but workable pH 4 was chosen to evaluate the release profile.
SMILES,Duration of release from the nanoporous stent [1],Period kept stabilized in vivo [2],Time stabilized in the ETDS product until eluted in the dissolution media [3]
"CCCCCCNC(=O)n1cc(F)c(=O)[nH]c1=O [HCFU, Carmofur]",over 72 hours,2-4 week,greater than 96 hours
"CC1(C)C(/C=C/C=C/C=C/C=C2\N(CCCCS(=O)(=O)O)c3ccc4ccccc4c3C2(C)C)=[N+](CCCCS(=O)(=O)[O-])c2ccc3ccccc3c21 [ICG, Indocyanine green]",over 72 hours,2-4 week,greater than 96 hours
